In PubChem BioAssay AID1259354 (Paczesny and Yang Labs, IUPUI and University of Michigan, 2018):
In all, about 78,000 compounds went through this assay and about 1,800 (2.3%) were called active. This list was built around the results that the source calls inconclusive (neither active nor inactive); the mix of calls is not that of the screen. Cut-off read from the data, not from the text of the source: active = inhibition above about 30%; inconclusive = mostly about 10% to 28%; inactive = weaker than that.

The chains behind the UniProt entries cited, without tags or fusion partners. Where a name states a change or a piece, a line headed by the entry shows the natural chain unless it says otherwise.
UniProt Q01638: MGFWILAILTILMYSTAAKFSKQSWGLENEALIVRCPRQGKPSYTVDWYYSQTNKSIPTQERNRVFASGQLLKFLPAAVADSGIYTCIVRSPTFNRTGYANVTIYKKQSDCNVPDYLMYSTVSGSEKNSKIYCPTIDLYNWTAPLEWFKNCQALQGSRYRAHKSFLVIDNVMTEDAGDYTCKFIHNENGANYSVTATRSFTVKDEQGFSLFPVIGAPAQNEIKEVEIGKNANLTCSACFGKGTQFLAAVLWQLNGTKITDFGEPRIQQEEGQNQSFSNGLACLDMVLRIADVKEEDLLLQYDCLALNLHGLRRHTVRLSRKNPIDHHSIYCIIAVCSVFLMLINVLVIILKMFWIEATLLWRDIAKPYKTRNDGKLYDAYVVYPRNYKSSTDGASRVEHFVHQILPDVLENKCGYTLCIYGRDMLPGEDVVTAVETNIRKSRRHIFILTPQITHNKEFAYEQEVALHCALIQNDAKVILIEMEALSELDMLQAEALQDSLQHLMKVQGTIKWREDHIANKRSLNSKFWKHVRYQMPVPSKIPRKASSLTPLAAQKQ

target: Interleukin-1 receptor-like 1 (Homo sapiens) (UniProt Q01638); assay: blocks human ST2 binding to IL-33, primary screen, biochemical, AlphaLISA (AID 1259354); details: AlphaLISA ST2-Fc/biotin-IL-33 interaction, 1 h; at 17 µM, hits give high values

Compound | inhibition
CN1CCC(NC[C@H]2O[C@@H](CO)[C@@H](O)[C@H]2N2CCN(c3ccc(F)cc3)CC2)CC1 | inconclusive: 14%
O=C(NCc1ccc2c(c1)OCO2)C1CCN(S(=O)(=O)c2cccnc2)CC1 | inconclusive: 12%
CCn1ncnc1-c1c(-c2ccccc2)ncn1CCNc1cccnc1 | inconclusive: 18%
CCn1c(C)c(C=O)c2cc([N+](=O)[O-])ccc21 | inconclusive: 10%
CCOc1ccc(C2CC(=O)n3nc(-c4ccc(C)cc4)nc3S2)cc1OC (stereo not drawn) | inconclusive: 15%
COc1ccc(-c2nc(N3CCCCCC3)nc3n[nH]c(N)c23)cc1 | inactive
COc1ccc(C2CC(c3cccs3)=NN2C(=O)c2ccc(Br)o2)cc1 (stereo not drawn) | inconclusive: 11%
COc1ccc(OCC(=O)Nc2ccc(OC)cc2[N+](=O)[O-])cc1 | inactive
O=C(c1ccc(-c2ccccc2)cc1)N1C[C@@H]2C[C@H](C1)c1ccc(NS(=O)(=O)c3cccc(F)c3)c(=O)n1C2 | inconclusive: 11%
C=CCN(Cc1ccc(F)cc1)C(=O)c1c(C)nn(CC)c1C | inconclusive: 17%
Cc1nn(C)c(C)c1CCC(=O)N1CCCC(C(=O)c2ccc3c4c(cccc24)CC3)C1 (stereo not drawn) | inconclusive: 14%
CN(CCCc1cnn(C)c1)Cc1ccccc1 | inconclusive: 11%
COc1ccc(OC)c2nc(N(C)C)c(CN(CCCN3CCCC3=O)C(=O)c3cncs3)cc12 | inactive
Cc1ccc(C2C(C#N)=C(N)Oc3c2sc2ccccc32)o1 (stereo not drawn) | active: 39%
CC1CCCN(C(=O)Cc2c(C(=O)O)[nH]c3ccc(Cl)cc23)C1 (stereo not drawn) | inactive
CC1CN(CN2C(=O)c3ccccc3C2=O)CC(C)O1 (stereo not drawn) | inconclusive: 20%
O=C(NCCc1ccc(Cl)cc1)C1C2C=CC3(CN(Cc4cccs4)C(=O)C13)O2 (stereo not drawn) | inactive
Cc1ccc(C(=O)Nc2ccc(Cl)cc2)cc1 | inactive
COc1ccccc1/C=C/C1=NC(=C\c2cccc(Cl)c2Cl)/C(=O)O1 | inactive
O=[N+]([O-])c1ccc(C2NCCCN2Cc2ccccc2)cc1 (stereo not drawn) | inconclusive: 19%
CC(C)NC(=O)c1ccccc1NS(=O)(=O)c1ccc2c(c1)OCCO2 | inconclusive: 10%
O=S(=O)(N1CCOCC1)N1CCOC(CCCc2ccccc2)C1 (stereo not drawn) | inconclusive: 10%
Cc1ccc(C2CC(=O)C3=C(C2)Nc2ccccc2NC3c2ccc(C)o2)cc1 (stereo not drawn) | inconclusive: 13%
CC1CC(C)CN(c2nc3c(c(=O)n(C)c(=O)n3C)n2Cc2ccc(Cl)cc2)C1 (stereo not drawn) | inconclusive: 13%

Compound | inhibition
O=C(Nc1nc(-c2ccc(F)cc2)cs1)c1cnccn1 | inconclusive: 13%
CNc1ncc(CN(C)C(=O)c2ccc3cccc(F)c3n2)cn1 | inactive
O=C(CC1(c2ccc(Cl)cc2)C(=O)c2ccccc2C1=O)N1CCCCC1 | inactive
COc1cccc(CN2CCc3c([nH]c4ccccc34)C2)c1OC | inconclusive: 12%
N#CC1=C(N)Oc2cc(O)ccc2C1c1ccccc1 (stereo not drawn) | inconclusive: 19%
COc1ccc(COC(=O)C2=C(C)NC(=O)NC2c2ccc(N(C)C)cc2)cc1 (stereo not drawn) | inconclusive: 14%
Cc1cc(C)c(S(=O)(=O)N2CCC(N(C)CCC(C)C)CC2)c(C)c1 | inactive
COc1ccc(/C=C2/SC(=O)NC2=O)cc1[N+](=O)[O-] | inconclusive: 12%
CN1C[C@]23C=C[C@H](O2)[C@H](C(=O)NC2CCC(n4cnnc4)CC2)[C@@H]3C1=O (stereo partly drawn) | inconclusive: 12%
COC(=O)c1c(C)nc2n(CCN3CCOCC3)c3ccccc3n12 | inactive
Cc1cccc(C)c1Oc1ncccc1CNC(=O)C1COC(=O)N1 (stereo not drawn) | inactive
CCc1cccc(-n2c(C)nc3c(cnn3-c3ccc(Cl)cc3)c2=O)c1 | inconclusive: 15%
O=C(c1cccc(-c2ncc[nH]2)c1)N1CC[C@@H](c2ccc(F)cc2)[C@H](O)C1 | inconclusive: 25%
COc1cccc(C2C3=C(CC(C)(C)CC3=O)Nc3nc(SCc4ccncc4)[nH]c(=O)c32)c1 (stereo not drawn) | inconclusive: 16%
O=C1NC(=Nc2cccc(Cl)c2Cl)S/C1=C\c1ccc(O)c(O)c1 | inconclusive: 17%
Cc1onc(-c2ccccc2)c1C(=O)O | inconclusive: 11%
CSc1nnc(CC2CCN(C(=O)CN(C)Cc3cccnc3)CC2)n1C | inactive
COc1ccc(CN=Cc2ccc(OC3CSC3)cc2)cc1 | inconclusive: 18%
O=C(O)[C@@H]1C[C@@H](C(=O)O)N1 | inconclusive: 15%
O=[N+]([O-])c1cc([N+](=O)[O-])c2cc(-c3ccc4c(c3)OCO4)oc2c1 | inconclusive: 21%
COc1ccc(CCNc2ncnc3sc(C(=O)NC[C@H]4C[C@@H]5C=C[C@H]4C5)c(C)c23)cc1OC | inactive
C=CCc1cc(OC)ccc1OCCOCCn1cnc2ccccc2c1=O | inactive
O=C(O)C1CCCCC1C(=O)N1CCCCCC1 (stereo not drawn) | inconclusive: 18%
O=C(Nc1ccc2oc(-c3cc(F)c(F)cc3Cl)nc2c1)c1ccco1 | inconclusive: 25%

Nothing new here: an excerpt of the list.
Compound | inhibition
O=S(=O)(N1CCOCC1)N1CCOC(CCCc2ccccc2)C1 (stereo not drawn) | inconclusive: 10%
Cc1ccc(C2CC(=O)C3=C(C2)Nc2ccccc2NC3c2ccc(C)o2)cc1 (stereo not drawn) | inconclusive: 13%
CC1CC(C)CN(c2nc3c(c(=O)n(C)c(=O)n3C)n2Cc2ccc(Cl)cc2)C1 (stereo not drawn) | inconclusive: 13%

Further compounds.

Compound | inhibition
N#Cc1c(-c2ccc([N+](=O)[O-])cc2)cc(C2CC2)nc1N | inconclusive: 17%
Cc1cccc(N(C)S(=O)(=O)c2cc(Br)cc3c2N(C(=O)C2CC2)CC3)c1 | inconclusive: 11%
Cc1cc(CN2CCc3[nH]cnc3C2c2cccn2-c2nccs2)on1 (stereo not drawn) | inactive
CCOc1cc(/C=C(\C#N)c2nc(-c3ccc(OC)c(OC)c3)cs2)ccc1O | inactive
CCNC(=O)[C@H]1CC[C@@](C)(C(=O)NCCc2nc3c(C)cccc3[nH]2)C1(C)C | inconclusive: 13%
CC(=O)Nc1ccc(C2C(C#N)=C(N)Oc3cc(N)ccc32)cc1 (stereo not drawn) | inconclusive: 16%
Cc1ccc2c(C(=O)CSc3ccccc3)c(C)[nH]c2c1 | inconclusive: 19%
O=C(c1csc(S(=O)(=O)Nc2ccc3c(c2)OCO3)c1)N1CCCC1 | inconclusive: 14%
Cc1cccc(C2=N/C(=C\c3ccco3)C(=O)O2)c1 | active: 47%
O=C(NCc1n[nH]c2c1CCCCC2)c1cn(Cc2ccccc2Cl)nn1 | inconclusive: 15%
COc1cc(C2CC(c3ccccc3O)=NN2)ccc1O (stereo not drawn) | active: 32%
CCOC(=O)N1CCC(N2CCN(CC(C)(C)C)C(CCO)C2)CC1 (stereo not drawn) | inconclusive: 11%
CC(=O)NC1=NN(C(C)=O)C(C)(c2ccc3ccccc3c2)S1 (stereo not drawn) | inconclusive: 17%
COc1ccc2[nH]c(C(=O)NCCCn3cncn3)c(C)c2c1 | inconclusive: 26%
CN(C)Cc1cc(C(C)(C)c2cc(CN(C)C)c(O)c(CN(C)C)c2)cc(CN(C)C)c1O | inconclusive: 15%
C=CCn1cc(C(=O)NC2CCCC2)c(=O)c2cc(S(=O)(=O)N3CCCCCC3)ccc21 | inconclusive: 28%
CCOC(=O)Oc1c(Cl)cc2oc(=O)sc2c1Br | active: 32%
Cc1nc2ccccc2n1-c1nc(-c2ccco2)cc(C(F)(F)F)n1 | inconclusive: 11%
CN1CCCC1CCNS(=O)(=O)NCc1ccccc1 (stereo not drawn) | inconclusive: 15%
CCn1nc(-c2ccccn2)nc2c(=O)n(C)c(=O)nc1-2 | inactive
Cc1ccc(C2(O)CCN(C(=O)c3cnc(-c4cccnc4)nc3)CC2)nc1 | inconclusive: 13%
CC(=O)N[C@H]1CC[C@]2(C)CCC([C@H](C)C(=O)N3CCCC3)[C@H](O)[C@H]2[C@@H]1C (stereo partly drawn) | inactive
CC(C)C(=O)Nc1ccc(N2CCCC2)c(Cl)c1 | inconclusive: 11%
Cc1c(C(=O)NC(C)c2ccccc2)oc2ccc(S(=O)(=O)N3CCOCC3)cc12 (stereo not drawn) | inconclusive: 11%

Compound | inhibition
CC(=O)N[C@H]1CO[C@H]2[C@@H]1OC[C@H]2OC(=O)Nc1ccc(Oc2ccccc2)cc1 | inconclusive: 20%
O=C(c1ccc[nH]c1=O)N1CCC(c2cc(Cc3ccccc3)[nH]n2)CC1 | inconclusive: 17%
CC1CCCCC1NC(=O)C1CCC(CNS(=O)(=O)c2cccc3nsnc23)CC1 (stereo not drawn) | inactive
Cc1c(C#N)sc2nc(-c3ccccc3)nc(N=CN(C)C)c12 | inconclusive: 28%
O=[N+]([O-])c1ccc(C2=Nn3c(nnc3-c3cccc(Br)c3)SC2)cc1 | inconclusive: 21%
CCOc1ccccc1C1C2=C(CC(C)(C)CC2=O)Nc2ccccc2N1C(C)=O (stereo not drawn) | inactive
O=C(OCC1(O)C(Cl)C=CC(OC(=O)c2ccccc2)C1O)c1ccccc1 (stereo not drawn) | inactive
Cc1nn(C)c(C)c1-c1cc(C(=O)N2CCC(O)(CN(C)C)C2)n(C)n1 (stereo not drawn) | inconclusive: 13%
O=C1c2ccccc2C(=O)N1c1nc2nccc(-c3ccccc3)n2n1 | inconclusive: 17%
CC(C)c1nc(CCNC(=O)c2cn(-c3ccccc3)nn2)cs1 | inconclusive: 11%
Cn1c(=O)[nH]c(=O)c2c1nc(N1CCN(CCO)CC1)n2CCSc1ncccn1 | inactive
COCCN(CCOC)S(=O)(=O)c1ccc(C(=O)N=c2sc3cc(C)ccc3n2C)cc1 | inconclusive: 21%
O=C(CCCn1c(=O)[nH]c2ccc(Br)cc2c1=O)NCc1ccco1 | inactive
CCCCNc1nc(-c2ccccc2)cc(C(F)(F)F)c1C(N)=O | inconclusive: 13%
COc1ccc(S(=O)(=O)Nc2cccc(Cl)c2C)cc1OC | inactive
Cc1ccc(-c2noc(CCC(=O)NCCN3CCOCC3)n2)cc1 | inconclusive: 14%
COc1cc(C2NC(=O)c3c(sc4c3CCN(C)C4)N2)ccc1OCc1ccccc1 (stereo not drawn) | inconclusive: 13%
CN(C1CCCCC1)S(=O)(=O)c1cccc2cccnc12 | inactive
Cc1cccc(NC(=O)CNC(=O)Cn2c(C)cc3ccccc3c2=O)n1 | inactive
CCOC(=O)c1cc2cc(Br)ccc2oc1=O | inactive
COc1ncccc1C(=O)N1CCC(n2nccc2NC(=O)C(OC)c2ccccc2)CC1 (stereo not drawn) | inconclusive: 18%
